## Screening data, single-dose tests

Data taken from ChEMBL document CHEMBL3988442, “University of Dundee, Small-Polar-MMV Screening Library” (2021).

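Phenotypic screen: M. tuberculosis growth, cholesterol and DPPC medium, 4 days; the read-out is not stated. Tested at 50 µM. Direction is inferred from retests: higher values go with more growth inhibition. About 69,000 compounds were tested under these conditions; 0.54% (about 370) showed 50% or more at least once.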

Values are the deposited “Percent Effect”, in %. The controls that fix the scale are not given in the record; negative values are as filed. Compounds were drawn at random from those tested, without regard to their results. Two or more numbers in one place are separate tests of the same structure; such repeats can differ widely.

compound	percent effect
Cc1noc(C)c1-c1n[nH]c2c1CN(S(=O)(=O)c1cccs1)CC2	14.58
c1coc(CN2CCn3c(nc4ccccc43)C2)c1	26
CN1CC(=O)N(c2ccccc2)CC12CCN(Cc1cccnc1)C2.O=C(O)C(F)(F)F.O=C(O)C(F)(F)F.O=C(O)C(F)(F)F (stereo not shown)	-3.394
O=C(O)C(F)(F)F.[H][C@@]12CCCO[C@]1([H])[C@H](NC(=O)c1cnoc1C)CN(Cc1ccco1)C2	17.88
CN(CC(=O)N(C)C)Cc1ccc(C#N)cc1F	-9.378
O=C1OCCN1c1cccc(CNCc2cc(F)ccc2F)c1	-39.68
c1cnnc(N2CCCC(NCc3ccc(-n4ccnc4)cc3)C2)c1 (stereo not shown)	-10.74
Cn1ccc(C(=O)N2CCC3(CCN3c3ncccn3)C2)n1.O=C(O)C(F)(F)F (stereo not shown)	-8.631
CCC[C@@H]1CN(C(=O)CCc2ccco2)C[C@H]1NS(C)(=O)=O	1.761
COCC1c2nnn(C)c2CCN1C(=O)Cc1ccccn1 (stereo not shown)	0.6865
Cc1cc(C(=O)N2CCC[C@]3(C[C@H](OCC4CC4)CO3)C2)no1	-4.591 and -16.69
COc1cc(CN(Cc2ccccn2)CC(C)C)cc2c1OCO2	9.306
C=C(C)COc1cccc(C(=O)N2CCC3(CC2)CN(C)CCN3C)c1	-6.716
Cn1cc(CN2CCC(c3[nH]ncc3S(C)(=O)=O)C2)cn1 (stereo not shown)	-0.8715
Cc1cc(N2CCN(Cc3ccc(C)o3)CC2)cc(C)n1	-11.77
COc1cc(Br)c(CNC2CCCNC2=O)cc1OC.Cl (stereo not shown)	-10.81
CCN(Cc1ccc(C#N)cc1F)C(=O)C(C)(C)C	-10.54
Cc1n[nH]c(C)c1CCC(=O)N(C)Cc1cn[nH]c1-c1ccc(F)cc1	-17.52
COc1ccc(C(=O)NCCN2CCC(c3cccs3)CC2)cc1OC	16.85
Cc1cnn(C2CN(Cc3nnc(C4CC4)o3)C2)c1	4.991
CN(C)S(=O)(=O)N1CCC(c2c(C(N)=O)sc3ccccc23)C1 (stereo not shown)	-10.55
CCN(CCn1c(=O)oc2ccccc21)CC1CCOCC1	-10.35 and -1.764
Cc1cc(C)n(C2CCCN(C(=O)Cc3cccs3)C2)n1 (stereo not shown)	12.7
FC(F)CN1CCC(NCCc2ccc(-n3cccn3)cc2)CC1	-8.225
O=c1[nH]c(CN2CCCC(Cn3cncn3)C2)nc2ccccc12 (stereo not shown)	-21.46
Cc1ccc(-c2nccn2-c2ccc(OC3CCN(C)CC3)cc2)o1	-27.47
CN(CCC1CCCCO1)c1nncc(-c2ccccc2)n1 (stereo not shown)	41.97
N#Cc1ccccc1N1CCCN(C(=O)CCc2nccs2)CC1	-0.03655
CC(C)CN1CCC2(Cc3ccccc3NC2=O)C1 (stereo not shown)	-9.455
CC(=O)NCCCNC(=O)Nc1ccccc1-n1nc(C)cc1C	19.31
O=C(O)C(F)(F)F.O=C(O)C(F)(F)F.c1csc(CN2CCCC3(COCCN(Cc4c[nH]nn4)C3)C2)c1 (stereo not shown)	-8.529
CN(C)CCN1CCOCC2(C1)CN(Cc1nccs1)CCO2.O=C(O)C(F)(F)F.O=C(O)C(F)(F)F.O=C(O)C(F)(F)F (stereo not shown)	-23.15 and -87.46
CC[C@@H](CO)NC(=O)c1coc(COc2ccc3sc(C)nc3c2)n1	-5.126 and 7.812
COc1c(CNCC(c2cccc(F)c2)N(C)C)c(C(C)C)nn1C (stereo not shown)	20.96
Cc1ccc(C#N)c(N2CC(C)(C)[C@@](C)(O)C2)n1	3.835
O=C(NCCNc1ncccn1)C1CC(=O)N(Cc2ccccc2)C1 (stereo not shown)	-4.019
[H][C@@]12CN(Cc3cnn(C)c3)C[C@]1([H])OCCN2CC1CCCC1	2.288 and -2.478
CC(C)c1noc(CNc2ccc(OC(F)F)cc2OC(F)F)n1	-6.455
CCNC(=O)C1CCN(Cc2ccccc2OCC(F)(F)F)CC1	17.79
O=C(C1CCCC1)N1CCn2c(nnc2C2CCCNC2)C1 (stereo not shown)	-5.298
O=C(c1[nH]nc2c1CCCC2)N1CCC(OCCN2CCCCC2)C1 (stereo not shown)	7.568
Cc1cc(=O)[nH]c(SC(C)C(=O)N2CCC(NS(C)(=O)=O)CC2)n1 (stereo not shown)	13.29
O=C(O)C(F)(F)F.[H][C@]12CCN(C(=O)CC)CC[C@@]1([H])S(=O)(=O)CCN2Cc1cccc(C)n1	12.97
Fc1ccccc1-c1noc2c1CN(CC1CC1)CC2	-1.994
CN1CCC(Cc2cc(Nc3ncccn3)ncn2)CC1	54.55
CC(C)=CCN1CCOC(Cn2nc(C)cc2C)C1 (stereo not shown)	-30
O=C(c1ccc2c(c1)OCCCO2)N1CCCCC1C1OCCO1 (stereo not shown)	-9.204
COc1cc(C2(C(=O)NCCn3ccnc3)CCCC2)ccc1C	-0.07338
Cn1cc(C(=O)N2CCN(Cc3ccccn3)CC2)ccc1=O	-7.42
O=C(O)C(F)(F)F.[H][C@]12CCC(=O)N(c3cnn(C)c3)[C@@]1([H])CCN2Cc1csc(C)n1	-14.22
O=C(O)c1cncc(Cc2ccccc2F)c1	-18.05
CC(C)C(=O)N1CCC([C@@H]2C[C@H](C(F)F)n3ncnc3N2)CC1	-1.036 and -14.66
O=C(COCC1CC1)N1CCSCC1	-0.179
[H][C@@]12COC[C@]1(COCC1CC1)CN(C(=O)c1ccc(F)cc1C)C2	-4.411
CC(C)Cc1cc(C(=O)N2CCC(Oc3cccnc3)CC2)n(C)n1	9.359
COc1ccc(C(O)CNC(=O)Nc2cc(C)nn2C)cc1 (stereo not shown)	-14.06
CN1CC2(CCCN(Cc3cccc(CCN)c3)C2)OC1=O (stereo not shown)	-21.99 and -10.4
CN(C)CCN1CCOCC2(CCCN(C(=O)Cc3ccccc3)C2)C1.O=C(O)C(F)(F)F.O=C(O)C(F)(F)F (stereo not shown)	-31.98
Cc1cccc(NC(=O)[C@@H]2CCCN2Cc2cnc3ccccn23)n1	-14.74 and -10.79
Cc1cccc(OCC(=O)NS(=O)(=O)Cc2ccccc2)c1	4.522
O=C(NC1CCCCC1)N1CCC(N2Cc3ncccc3C2=O)CC1	3.816
Cc1n[nH]c(=O)c2c(NC(=O)CN3CCOCC3)oc(C)c12	-3.289
Cc1ncc(CN)c(-c2cn(C)c3ccccc23)n1	19.93
Cc1ccccc1CN1C[C@@H](CN(C)CCO)[C@@H](CO)C1	1.902
O=C(O)C(F)(F)F.O=C(c1ccccc1)N1CCC[C@]2(C[C@@H](OCc3ccccn3)CO2)C1	14.9 and -9.549
CCn1c(C2CCCN(Cc3ccnc4ccccc34)C2)nn(C)c1=O (stereo not shown)	-5.777
CC(OCc1ccccc1)C(=O)NCc1ccc(N(C)C)cc1 (stereo not shown)	0.6046
CC(Sc1nnnn1C1CCOCC1)C(F)(F)F (stereo not shown)	7.975
CCN(Cc1cnn(C)c1)S(=O)(=O)c1ccc(NC(=O)C(C)(C)C)cc1	15.94 and -6.039
Cc1nc(C)c(C(=O)OCCNc2ncccc2C#N)s1	-6.982
Cc1cc(S(C)(=O)=O)c(C)c(S(=O)(=O)NCC2CCC2)c1	10.86
CC(C)(O)CN1CCC(=O)N(Cc2ccco2)Cc2cc(F)ccc21	-20.42
CC(C)n1cc(-c2c(C#N)c(N)nc3c2COCC3)cn1	-20.56
CN(Cc1ccc(Br)s1)Cn1nc(-c2ccccc2)oc1=O	5.373
Cn1c(CC2CCS(=O)(=O)C2)nnc1SCCOc1cccc(Cl)c1 (stereo not shown)	-10.38
CC(NC(=O)c1cc2n(n1)CCCN(C)C2)c1cn2ncsc2n1 (stereo not shown)	0.19

The last 4 entries again:

| compound | percent effect |
|---|---|
| `CC(C)n1cc(-c2c(C#N)c(N)nc3c2COCC3)cn1` | -20.56 |
| `CN(Cc1ccc(Br)s1)Cn1nc(-c2ccccc2)oc1=O` | 5.373 |
| `Cn1c(CC2CCS(=O)(=O)C2)nnc1SCCOc1cccc(Cl)c1` (stereo not shown) | -10.38 |
| `CC(NC(=O)c1cc2n(n1)CCCN(C)C2)c1cn2ncsc2n1` (stereo not shown) | 0.19 |